{"source": "PubChem BioAssay AID504786 (Drosophila RNAi Screening Center, 2011)", "purpose": "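Knock-downs reducing HIF reporter induction by the iron chelator DFO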 (primary screen)", "cell system": "Drosophila S2 cells with a stable HIF luciferase reporter", "reagent": "long dsRNA against Drosophila genes, about 0.2 µg dsRNA per well of a 384-well plate", "duration": "three days of knock-down, then 20 h of DFO before reading", "challenge": "desferrioxamine (DFO) at 100 µM, an iron chelator that mimics hypoxia, for 20 h", "read-out": "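HIF reporter luminescence in cells given 100 µM DFO for 20 h, using the mouse ldh-a hypoxia-response element, scored as per-plate z-scores; higher means greater loss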", "direction": "z-score: higher = stronger loss of HIF reporter signal", "note": "The screen tested about 21,000 reagents; this is an unselected part of those with a known target gene and a result. 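Primary screen; positive scores mean lost reporter signal, so the sign may be inverted from the usual convention.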 A plus sign joins genes that one reagent is predicted to hit. Not all columns of the deposit are shown."}
{"gene": "ttm50", "amplicon": "DRSC18587", "z-score, replicate 1": -0.1}
{"gene": "EMC8-9", "amplicon": "DRSC04380", "z-score, replicate 1": -0.2}
{"gene": "Acp53C14a", "amplicon": "DRSC07224", "z-score, replicate 1": -0.2}
{"gene": "CG11626", "amplicon": "DRSC14336", "z-score, replicate 1": -0.9}
{"gene": "CG9368", "amplicon": "DRSC11067", "z-score, replicate 1": -0.3}
{"gene": "CG2685", "amplicon": "DRSC18463", "z-score, replicate 1": 3}
{"gene": "CG34434", "amplicon": "DRSC18134", "z-score, replicate 1": 0.1}
{"gene": "CG15432", "amplicon": "DRSC00447", "z-score, replicate 1": 0.1}
{"gene": "Prosbeta4", "amplicon": "DRSC02603", "z-score, replicate 1": -0.3}
{"gene": "CG32579", "amplicon": "DRSC19872", "z-score, replicate 1": -0.2}
{"gene": "CG7248", "amplicon": "DRSC10788", "z-score, replicate 1": -0.3}
{"gene": "CDase", "amplicon": "DRSC14932", "z-score, replicate 1": -0.3}
{"gene": "CG7963", "amplicon": "DRSC16355", "z-score, replicate 1": -0.3}
{"gene": "Fgop2", "amplicon": "DRSC02016", "z-score, replicate 1": 0.9}
{"gene": "Atxn7", "amplicon": "DRSC00726", "z-score, replicate 1": -0.4}
{"gene": "CG13151", "amplicon": "DRSC06276", "z-score, replicate 1": -0.2}
{"gene": "gwl", "amplicon": "DRSC16305", "z-score, replicate 1": -0.2}
{"gene": "CG4854", "amplicon": "DRSC15663", "z-score, replicate 1": 0.6}
{"gene": "Gpat4", "amplicon": "DRSC04345", "z-score, replicate 1": -0.3}
{"gene": "coil", "amplicon": "DRSC07242", "z-score, replicate 1": -0.3}
{"gene": "CG15923", "amplicon": "DRSC15129", "z-score, replicate 1": -0.2}
{"gene": "CG14610 + asRNA:CR42738", "amplicon": "DRSC12554", "z-score, replicate 1": -0.2}
{"gene": "sphe", "amplicon": "DRSC20203", "z-score, replicate 1": -0.2}
{"gene": "CG14693", "amplicon": "DRSC14916", "z-score, replicate 1": -0.3}
{"gene": "asRNA:CR42547 + CG15674", "amplicon": "DRSC04264", "z-score, replicate 1": -0.2}
{"gene": "CG42714", "amplicon": "DRSC08798", "z-score, replicate 1": 0}
{"gene": "Hrb87F", "amplicon": "DRSC16708", "z-score, replicate 1": -0.4}
{"gene": "Cep164", "amplicon": "DRSC20163", "z-score, replicate 1": -0.3}
{"gene": "modSP", "amplicon": "DRSC16726", "z-score, replicate 1": -0.5}
{"gene": "modSP", "amplicon": "DRSC16857", "z-score, replicate 1": -0.2}
{"gene": "thoc6", "amplicon": "DRSC10528", "z-score, replicate 1": -0.3}
{"gene": "CG13243", "amplicon": "DRSC01920", "z-score, replicate 1": -0.1}
{"gene": "CG4338", "amplicon": "DRSC15564", "z-score, replicate 1": -0.2}
{"gene": "Hs3st-B", "amplicon": "DRSC20067", "z-score, replicate 1": -0.1}
{"gene": "CG1827", "amplicon": "DRSC06719", "z-score, replicate 1": -0.3}
{"gene": "RpL24-like", "amplicon": "DRSC16111", "z-score, replicate 1": 0.5}
{"gene": "CG34282", "amplicon": "DRSC16298", "z-score, replicate 1": -1.1}
{"gene": "Cys", "amplicon": "DRSC16637", "z-score, replicate 1": -0.3}
{"gene": "Optix", "amplicon": "DRSC05078", "z-score, replicate 1": -0.3}
{"gene": "Optix", "amplicon": "DRSC07484", "z-score, replicate 1": -0.3}

Laid out differently: 6 of the entries above
Fgop2 [DRSC02016] | z-score, replicate 1 = 0.9
Atxn7 [DRSC00726] | z-score, replicate 1 = -0.4
CG13151 [DRSC06276] | z-score, replicate 1 = -0.2
gwl [DRSC16305] | z-score, replicate 1 = -0.2
CG4854 [DRSC15663] | z-score, replicate 1 = 0.6
Gpat4 [DRSC04345] | z-score, replicate 1 = -0.3
